The campaign covered roughly 53,000 sequences. About 3,700 (7%) were called active.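 Rule for the calls: active = gene knockdowns whose robust z-score for IL-1 alpha signal is at least 2 or at most -2, so actives lie on both sides; inactive = the rest.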 This is one part of the list.

The assay can be described thus: Components of the Cytosolic LPS Sensing Pathway: Gene Identification via Genome-wide siRNA Screen.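 Note: robust z of the log signal after scaling to non-targeting control siRNA wells of the plate.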 The note with it: RAW264.7 macrophages, IL-1a HTRF, actives lie on both sides, screened at 100 nM (by protocol), cells primed 5 h with Pam3CSK4 first. Put shortly:
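Read-out: IL-1a HTRF on supernatant, divided by plate negative-control median ×100, log-transformed and converted to robust z-score. Cells were RAW264.7 given 100 nM siRNA, Pam3CSK4-primed 5 hours, then LipidA-transfected 24 hour.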
Background: Time-resolved FRET reads energy transfer from a long-lived donor to a nearby acceptor.
Regarding CCAAAAUCAUAGAUGGAGUTT against Postn, the z-score was inactive: 0.0946.
The same measure for GGAUGGAUUGCUGGUUACATT against Vwa3a: inactive: -0.336; for GGAACGAGAAUCGGAGAUGTT against Mapk8ip3: active: 2.92; for GGUACCUAGGAUGCUCUCATT against Ift140: active: -2.23.
In the case of GGAAGAAAUUUUUCGUUGATT against Gldc it was inactive: -0.71; in that of GGCACUCAACACCUGUAUATT against Olfr640, inactive: -1.34; in that of GGAUGUGGCAUCCUACCACTT against Bfsp2, inactive: -0.675.
In the case of GGCAGAAUCUAAAGACCAATT against Aldh8a1 it was inactive: 0.844.
As to GCUUUAUGAGUUCACGGAGTT against Prkab2, the z-score was inactive: 1.02.
In the case of GGAUCGAUCUGACAUCAAATT against Epyc it was inactive: -0.31; in that of GGAGAGAUCAUACACUUUGTT against BC048679, inactive: 0.43; in that of CGAUAAAACAGAACAUAGUTT against Stxbp4, inactive: 0.551.
Turning to GGGCUGUUUGUAGCAGAUUTT against Olfr1279, the z-score was inactive: -1.12.
GGUGGGCACUCUGGUUUUUTT against Eif4e: the z-score was active: 4.66.
Turning to GCACAAGACUCUUUCAGUUTT against Lipa, the z-score was inactive: -0.948.
In the case of GGCUACGCAGCGAAGAAAATT against Rpl32, the z-score was inactive: 1.32.
The same measure for GCUCAUGAUUACUGCCAAUTT against Olfr1305: inactive: 0.643; for GGAUGAUGAAAUUGGAGAUTT against Cct5: inactive: -0.373.
In the case of GGACGUGGAAAACCACAGUTT against Nphp4 it was inactive: 0.0474.
With GGAUUCUUACCCAACUUUUTT against Usp49, the z-score is inactive: -0.112.
The same measure for GCAAAUGCGACUUUACACATT against Top1: active: 2.56.
CCUACGAGGAUACUUACAATT against Kif18b: the z-score is active: 2.81.
In the case of GGACACUGGGCGAAUAGUGTT against Cdkl3 it was inactive: -1.2; in that of GGACAGAUGAACUUCAAUGTT against C1galt1, inactive: -0.411; in that of GCGUACGUGGACUUAACUCTT against Gtf2a2, inactive: 0.65.
As for GGACCUGUGUGUUCUUUGATT against Amhr2, the z-score is inactive: -0.505.
GGAGCUUGUUCGAGAUCCATT against Insl5: the z-score was inactive: -1.44.
The same measure for GGAGAAAUGAAGAUUGUGGTT against Tmem218: active: -2.31; for GGCACUUCAGAGCAAAUUGTT against Slc16a4: inactive: -0.571; for GCUUAUGAACCUCAGAGGGTT against Tex19.1: inactive: -0.234.
The same measure for CCACCUACGUCAACACUAATT against Kcnh6: inactive: -1.8; for CGUGGACUAAAAGUUUUCATT against Mmp12: active: 3.63.
In the case of GGUACAUUUUAUACUGGAGTT against Zfp277 it was inactive: 0.163.
“GGGAGUAGCUCUAUUCAGATT against 2610044O15Rik8”: the z-score was inactive: -0.775.
The same measure for GGGACACGAACUCUCCAAUTT against Ywhab: inactive: 0.441.
For the sequence CCUGAUACCCAAAGACUCATT against Dnaic1, the z-score was inactive: -1.38.
Consider GGAGAUCAUGGAGAAAGGCTT against Nacc1, for which the z-score was inactive: 0.599.
The same measure for GCAAAACUGGCUGUCAGUATT against Rnf24: inactive: -0.779.
The same measure for CCAAGGAAUGUUGUGUUUATT against Hspa4l: inactive: -0.397; for CGUAAUUGAUAAAACGGGATT against Gm4792: inactive: 0.344; for GCGCAAAUACAUUGAGGAUTT against Slc17a7: inactive: 0.451.
The same measure for GGUUGGUAGUCCUUUAAGATT against Tspyl3: inactive: 0.332.
As for GCUUUUAGGCCAUUAUCAGTT against Ddx46, the z-score is inactive: -1.78.
The same measure for GGAAUAUUGUGCAUCAAAGTT against Dennd1c: inactive: 0.806; for GGAGUGUAUGCAGAAGUUUTT against Dnajc24: inactive: 1.49.
Take GGCAAACGAUAAAGAAAUCTT against Ptp4a2: the z-score was inactive: 1.58.
In the case of GCCCUUUUCAGGGAAAACUTT against Myh8 it was inactive: 1.06; in that of GCCCAUUCAAACUAUCUAUTT against Ttk, inactive: -0.493; in that of GGGUUUGUCAUCACUGUCUTT against Bdkrb1, inactive: -1.4.
The same measure for GGAGAUUCAGAAGAUCCUCTT against Isoc2b: active: 2.49.
The same measure for GGUUGAAGACUUCUUACUUTT against Cdc25a: inactive: 0.567; for GGGAAGCAAUAAGUCGCCUTT against Shc4: inactive: 0.394.
For the sequence GCUCACACUCUUCAUUAUCTT against Olfr1408, the z-score was active: -2.91.
In the case of GCUACUUCAGUCAAGAACATT against Ints3 it was inactive: -0.11.
In the case of GGAAUUCAGAGACAGACUATT against Fpr-rs4 it was inactive: -1.06; in that of GGCAAGAAUUCGUUCAUGUTT against Adap1, inactive: 0.337.
In the case of GCUAGACCUCACUGUUUUUTT against Sprr2i, the z-score is inactive: 1.03.
In the case of GGACUAUGCCGAUAAUAUCTT against Rab24 it was inactive: 0.209.
In the case of GGAGACUACCAGGACAAUATT against Tmem223 it was inactive: 0.00381; in that of GGCCUGACGCAUUAGCAUUTT against Ccdc103, inactive: 0.232; in that of GGUUCUUCCCACAGAAGACTT against Pggt1b, inactive: 0.176.
The same measure for GGUCCCUCUAGCUACAAAUTT against Efcab8: inactive: -0.163; for GGCUUUCAGGAUAUCAUUUTT against H3c7: inactive: 0.84; for GUGUUCACCUGACUUUCCCTT against Nlrp4g: inactive: -1.55.
On to GCCCAAGUGUACUACCGUGTT against Ece1, for which the z-score was inactive: 1.4.
In the case of GCUCCUAUUACCAAAUUAATT against Olfr747 it was inactive: -0.587; in that of GGAGAGAAAAUCUUCCAUUTT against Pramel6, inactive: 0.429.
In the case of CGUCGGUUUCUCCCUGAAATT against Tdpoz5 it was inactive: -0.376.

These data come from PubChem BioAssay AID1508600 (Functional Genomics Laboratory (NCATS/FGL), 2020).
